Our source for the z-score values is PubChem BioAssay AID1508600 (Functional Genomics Laboratory (NCATS/FGL), 2020).

In all, about 53,000 sequences went through this assay and about 3,700 (7%) were called active.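 The calls were made as follows: active = gene knockdowns whose robust z-score for IL-1 alpha signal is at least 2 or at most -2, so actives lie on both sides; inactive = the rest.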 This is one part of the list.

A short description of the experiment: Components of the Cytosolic LPS Sensing Pathway: Gene Identification via Genome-wide siRNA Screen.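 Also: robust z of the log signal after scaling to non-targeting control siRNA wells of the plate.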 As to conditions: RAW264.7 macrophages, IL-1a HTRF, actives lie on both sides, screened at 100 nM (by protocol), cells primed 5 h with Pam3CSK4 first. A digest of the protocol: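 Read-out: IL-1a HTRF on supernatant, divided by plate negative-control median ×100, log-transformed and converted to robust z-score. Cells were RAW264.7 given 100 nM siRNA, Pam3CSK4-primed 5 hours, then LipidA-transfected 24 hour.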
Background: Time-resolved FRET reads energy transfer from a long-lived donor to a nearby acceptor.
In the case of GGACUGCUGGGAGAACUUUTT against Zcchc3, the z-score is inactive: 0.76.
Then GGAAGUUUGAGUUUGAGCUTT against Fbxl21, with inactive: 1.79; and GGUCUCCUUGAGUCUUCCATT against Hes3, with inactive: 0.647; and CCAAUGAGAGGUAAAAAACTT against Tafa1, with inactive: -0.582.
Then UGCAGUCCAUAUCCUCAUGTT against Olfr645, with inactive: -0.791; and GGGAUGUUAACCAAGCUUUTT against Cntf, with inactive: 1.06.
The result for GCAGGAGUUUAACCUUCCATT against Gmppa reads inactive: -1.9.
Regarding GCUGGAGUAUUUACUACACTT against Ndufab1, the z-score was inactive: 0.769.
The result for GGACAUUUCAAAAGAAAGGTT against Medag reads inactive: -1.49; that for GUCCCAAUACCUUCUUGUUTT against Vmn1r21, inactive: -0.12; that for GCCUUGAAGUUCAAAGGAATT against Nob1, inactive: -0.266.
Regarding GGUGCAGAGCUGGUUGACUTT against Tubb4b, the z-score was inactive: -0.641.
Regarding GGAGAAUUUGACUUUAAUGTT against Eif4enif1, the z-score is inactive: -0.199.
For the sequence GCCAGGACUUGUUAAAAAGTT against Limch1, the z-score is inactive: -0.633.
The result for GGAAAGAUCGAGGAAGAUATT against Cuta reads inactive: -1.47; that for CCAAGGUUUGUCAUCUAAGTT against Limk2, inactive: -0.536; that for GCUCUGCUAGUCAACUGCATT against Nrip2, inactive: -0.0497.
Then GCUUAGAGCGAUUCUAUGATT against Celf4, with inactive: -1.46; and GCUGAGAUAAGAAGUUUAATT against Macroh2a3, with inactive: -0.0965; and GCUGUUAGCCUAGUUUGUUTT against Ccdc177, with inactive: -0.835.
In the case of GGUGGUUUAACUGGAUAUUTT against Paip2b, the z-score was inactive: -1.95.
The result for GGCCAAGGUUGCUAUUAAATT against Sik3 reads inactive: 0.168; that for GCAUCACUGAUCUGUGAAUTT against Cenpn, inactive: 0.627.
For GGGCAUGUUUGCCACCAGUTT against Gpam, the z-score is inactive: 0.589.
GGACCACUGACAUUUUUCATT against Tagln3: the z-score is inactive: 0.618.
As to GGUGUCUGCGUGAAGAUCATT against Cacng8, the z-score was active: 2.81.
The result for CGAAUUUACAAGUUGUGCUTT against Pcnx4 reads inactive: -0.201; that for GGCCAUUCCAGCUCUGAAATT against Isl2, inactive: -0.298.
The result for GCUCUUAUCAGCAUGUAUATT against Birc6 reads inactive: 1.7.
The result for GGAAUCAAAGAUGGAGAGGTT against Galnt3 reads inactive: -0.409; that for GGACAACCGAUGAAUUUCGTT against Atp13a5, inactive: -0.971.
As to GUGUUCAACUCCUGAGUAGTT against Olfr1275, the z-score was inactive: -0.076.
With GGAGUUCUAUGUGUCACCATT against Dnajc5b, the z-score was inactive: -1.62.
The result for GGAAAAGGAAUUCUCCAGATT against Atrip reads inactive: 0.624.
As to “GGCAUUCAAAUCAAGAAGATT against 1700123O20Rik”, the z-score was inactive: 0.522.
Consider GGAACAUUUUUAGGACUGUTT against Vmn2r81, for which the z-score is inactive: 0.637.
For CCAAGAAGAUCUGUACACGTT against Atxn7l2, the z-score was inactive: 0.0534.
Take AAAUGAUAUCAAUAAAAUATT against Gm5154: the z-score is inactive: -0.631.
Then CCUAAGUGCUCCAUGGUACTT against Zfp28, with inactive: -1.86; and GGAAGAAGAUGAAGUUUUATT against Rnf222, with inactive: 1.83; and GGAGAAAUGCUUUUUGUUUTT against Scarb1, with inactive: -0.151.
For the sequence CCAAAACUAGGAAGAAACATT against Olfr716, the z-score was active: -2.3.
On to GGGAAACGCAAAGCCUUUUTT against Olfr17, for which the z-score is inactive: 1.77.
Then CGAACCAAUGUCAACUUUCTT against Gpat3, with inactive: -0.0547; and GGCUCUCCUGAUCCAAGCUTT against Tprgl, with inactive: -1.28; and CCUCUAGAGAUCAAUGAGATT against Cluap1, with inactive: -1.08.
The result for GGUGCUGAGAUCGAGUAUGTT against Mydgf reads inactive: 0.849; that for GGAGCUAUGCAGAGGAGUATT against Duoxa1, inactive: 0.87.
Then GCUGGUCUAUGUGGAAAGGTT against Brap, with active: 2.32.
For GGAGGAUACAGUGGAGGGATT against Fbxl19, the z-score is active: 2.81.
Regarding GGAAGUAGGCAGCAUCAUCTT against Pcbp1, the z-score is inactive: 1.13.
Regarding GGAAAUCAGCUCAUAAAGUTT against Tcf19, the z-score is inactive: 0.418.
Then GGUACAUUAUCGGAUACAUTT against Zfp658, with inactive: -1.1; and CCCUCGAUCCUUUUCACCUTT against Gja4, with inactive: 0.615; and GCAGGUGGUACGCAGACUATT against Ulk1, with inactive: -0.0204.
In the case of GGACAUCUUUUACCAGGAGTT against Mrps23, the z-score was inactive: -1.55.
Then GGAUUCGGACUUCAUAAUCTT against Dpp10, with inactive: 0.256.
GGCUUUUGGUCUGAGAUGCTT against Snf8: the z-score was active: -2.04.
The result for GGAUCUAGAUAAAACUCAATT against Epb41l3 reads inactive: 0.425.
As to AACCUUGCCGUUCUAGACATT against Olfr1423, the z-score is inactive: -0.526.
In the case of GGAGACUUACGAACUUCGUTT against Rpl22l1, the z-score was inactive: 0.126.
Then CGAUUGCUACGGAUAUUAUTT against Cdkal1, with inactive: 0.0195; and GGAAAAAUACUCCAUAUUCTT against Enam, with inactive: 0.0353.
Regarding GGUUGGUGACACAGUGCAATT against Tcl1b2, the z-score is inactive: -0.567.
The result for CGGCAAUACCAUCAACAAGTT against Chrne reads inactive: -0.385; that for GGCAUCUCCUCGAAUUUAUTT against Theg, inactive: -0.737.
In the case of CCCGAAUGCAAUCCUUUGGTT against Phgdh, the z-score was inactive: -0.748.
For GGAUUUUUACUGGUCAAACTT against Stap1, the z-score was inactive: 0.0318.
The result for GCAGUUGACAUUUACUCUCTT against Nol10 reads active: 2.36; that for GGAGAAUGAAGAAGAUAAUTT against Taf5l, inactive: 0.222; that for GGAAAUUGUCAGGUCCUACTT against Rad50, active: 2.94.
For the sequence GGGCUUCAGUGAAGUUGUCTT against Nat8f3, the z-score was inactive: -0.471.
The result for GCUCUUUUUACUAUGUCAATT against Col4a3 reads inactive: 0.141; that for GGAGAAAAUUUUGUCACUGTT against Olfr437, inactive: -0.353.
As for GGAUUCUGAAGUGUAAAGATT against Icos, the z-score was inactive: -0.764.
The result for GCAUAAAAUUGUGUUUCGUTT against Slc39a6 reads inactive: 0.208; that for GGAACGAGACCUGAAAAUUTT against Myh11, inactive: 0.63; that for “GGGAUAACACUCCUGUUUUTT against F630111L10Rik”, inactive: -1.06.
The result for GGCUUGGGUGCAACUGAAATT against Mrps26 reads inactive: -0.608; that for GCCAUCAACAGCAUUUACATT against Glt8d2, inactive: -0.455.
Then GCGUAGGUUACGUUCAAGGTT against Ermard, with active: 2.74.
For the sequence GGGCUAGCAUCACAGUUUUTT against Tigd3, the z-score was active: 2.3.
For GCCGAUCCAGAUUAUCAACTT against Vps26c, the z-score was inactive: 1.95.
The result for GUGAGAACAAACAGAUAAUTT against Vmn1r4 reads inactive: -0.602.
The result for GCCUGAUCUCUUCCCAUCATT against Bpifa1 reads inactive: -1.62.
The result for “GGUCAGAGUACCUCAAAGGTT against 4930550L24Rik” reads inactive: 1.77; that for GGCUCAGAUGUAUUUCAAATT against Magt1, inactive: -1.08; that for GGACACUUUACAGUGAUUGTT against Skint4, inactive: 1.1.
As for CGUGUAUAAUGGCCAGCUUTT against Lamp1, the z-score was inactive: -1.63.
Regarding GGAGUUUGUCAUCAUGGGCTT against Gpr4, the z-score was inactive: 1.01.
Regarding GCAUGUGCUCCUUUUGUCGTT against Scgb2b27, the z-score is inactive: 0.433.
The result for GGAGGAGGUUCUUCAGUACTT against Aplp2 reads inactive: 0.796.
Take GGCCAAGGAAGAGAUCAUGTT against Ap4s1: the z-score is inactive: -0.909.
Then GGGCGAUUAUCUGUGGAAATT against Syt16, with inactive: 1.4; and GCACUGAAAGAAUUCGACUTT against Strn3, with inactive: 0.115.
For GCCCAAUGAUUUCUCUUGUTT against Serpinb3d, the z-score was inactive: 0.355.
With “GGAACUAACACAUGAGUCUTT against D630004N19Rik”, the z-score was inactive: 1.27.
For CCAAUCCUGGAAUUGCCGATT against Gnb1l, the z-score is inactive: -0.962.
With GGAUGUUGAGGAGUUUUUUTT against Trp53, the z-score is inactive: 0.358.
Then CCUAGAGAACUCUACCUGCTT against Rbpms2, with inactive: -0.582; and GGGACCGUGCUCUUUAACCTT against Nr0b1, with inactive: 0.648.
Turning to GGCGAAAAUUACUCGAAAGTT against Penk, the z-score was inactive: 0.941.
For the sequence GGAUCGAAGCAGAACUGCATT against Hipk3, the z-score is inactive: -0.936.
With GGGUCAAAGAAGGAUACGUTT against Pym1, the z-score is inactive: 0.109.
The result for GGAGGGUCUUGGAUAUGUGTT against Olfr1337 reads inactive: 0.765; that for GCUUCAGGACGACUUCUACTT against Fzr1, inactive: 1.46.
In the case of GGAAACAGAUUUAAAGUGATT against Efcc1, the z-score was inactive: 1.03.
